## Percent effect of library compounds

The chains behind the UniProt entries cited, without tags or fusion partners. Residues count along the entry.
UniProt Q8IDJ8, 1-583: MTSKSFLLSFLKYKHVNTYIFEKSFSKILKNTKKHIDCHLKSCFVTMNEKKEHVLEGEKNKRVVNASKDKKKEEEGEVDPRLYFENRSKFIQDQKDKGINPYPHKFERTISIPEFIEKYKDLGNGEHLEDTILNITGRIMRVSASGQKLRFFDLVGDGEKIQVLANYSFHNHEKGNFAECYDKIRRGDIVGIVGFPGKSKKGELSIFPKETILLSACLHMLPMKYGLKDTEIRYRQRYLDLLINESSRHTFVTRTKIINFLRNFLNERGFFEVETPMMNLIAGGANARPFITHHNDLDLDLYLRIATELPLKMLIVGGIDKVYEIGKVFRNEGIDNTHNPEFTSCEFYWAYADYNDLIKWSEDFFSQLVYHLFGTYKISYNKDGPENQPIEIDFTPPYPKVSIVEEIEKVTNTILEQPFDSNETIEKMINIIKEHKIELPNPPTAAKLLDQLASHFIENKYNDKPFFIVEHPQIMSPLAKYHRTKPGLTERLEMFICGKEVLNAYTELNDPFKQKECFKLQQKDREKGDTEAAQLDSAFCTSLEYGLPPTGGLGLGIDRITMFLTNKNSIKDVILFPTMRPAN

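Enzyme assay of the cytosolic lysyl-tRNA synthetase in 384-well plates, read by luminescence. Target: Lysine-tRNA ligase, Plasmodium falciparum 3D7 (UniProt Q8IDJ8). Compounds at 30 µM. Direction is inferred from only a few compounds that gave an IC50; most scored high, so higher reads as stronger inhibition. About 69,000 compounds were tested under these conditions; 0.071% (about 49) showed 50% or more at least once.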

Values are the deposited “Percent Effect”, in %. The controls that fix the scale are not given in the record; negative values are as filed. The compounds are a random part of those screened.

Result for O=C(c1cc(Cl)c[nH]1)N1CCN(CCc2ccccn2)CC1 was 9.891%.
Result for O=C(NC1CC1)N1CC[C@H](OCC2CC2)[C@@H]1Cc1cccnc1 was 4.124%.
Result for O=C(O)CN1CCOCC(Cc2ccc(Cl)cc2)C1 (stereo not drawn) was 0.677%.
Result for CCN(Cc1ccncc1)S(C)(=O)=O was -1.494%.
Result for CCN(C)c1ncc2c(c1C(=O)O)CCN(C1CCOC1)C2 (stereo not drawn) was 4.984%.
Result for CSC(CNS(C)(=O)=O)c1cccc(Cl)c1 (stereo not drawn) was 4.607%.
Result for CN(c1ncccc1C#N)C1CCN(Cc2ccncc2)CC1 was 2.117%.
Result for CN1CCN(Cc2ccc(-c3ccc(C(N)=O)cc3)nc2)CC1 was -2.77%.
Result for N#CCCn1cnc2c(F)cc(Br)cc2c1=O was -0.1173%.
Result for COc1ccccc1CC(C)N(C)S(C)(=O)=O (stereo not drawn) was 2.146%.
Result for CN(C)C(=O)NCc1ncn2c1CN(Cc1cccs1)CCC2 was 4.091%.
Result for CCOCC1CN(C(=O)c2cccc(C)n2)Cc2cnn(C)c21 (stereo not drawn) was 12.05%.
Result for CN(CC(=O)NCCCOc1ccc(F)cc1)c1ccc(C#N)cn1 was 2.385%.
Result for c1ccc(CCN2CCCC2c2cccc(Nc3nccs3)n2)cc1 (stereo not drawn) was -2.451%.
Result for Cc1[nH]ncc1CCCNC(=O)N1CCOC(C)C1 (stereo not drawn) was 1.103%.
Result for CN(Cc1ccc2c(c1)OCCO2)Cc1nc2c(cnn2C)c(=O)[nH]1 was 1.058%.
Result for Cc1ccc(CN2CCOC3(CCN(C(=O)N4CCCC4)CC3)C2)cc1 was 5.227%.
Result for CC1N(CC2CC2)C(=O)COC12CCN(C(=O)c1cccs1)CC2 (stereo not drawn) was 4.804%.
Result for COCC1N(C(=O)N2CCOCC2)[C@H]2CC[C@]1(O)CC2 (stereo partly drawn) was 2.479%.
Result for Cc1nc2c(c(C)c1CC(=O)NCc1ccco1)c(=O)[nH]n2C was -1.314%.
Result for O=C(Cc1ccsc1)N1CCCCC1c1ccn2ccnc2n1 (stereo not drawn) was 0.782%.
Result for CC(C)Oc1ncccc1CNC(=O)N1CCC1 was 1.173%.
Result for COc1ccc(-c2c[nH]c([C@@H]3COCCN3)n2)cc1 was 4.384%.
Result for Cn1cc(CCNC(=O)N2CCCC(Cc3nccn3C)C2)cn1 (stereo not drawn) was 2.082%.
Result for CCc1nc(C2CCCN(C(=O)C3=NN(C(C)C)C(=O)CC3)C2)no1 (stereo not drawn) was -0.1859%.
Result for CNC(=O)CS(=O)(=O)Cc1coc(-c2cccc(F)c2)n1 was -2.215%.
Result for COc1ccc(C)cc1S(=O)(=O)NCC(c1cccn1C)N(C)C (stereo not drawn) was -1.658%.
Result for COCc1ccccc1C(=O)N1CCn2c(nnc2C(C)C)C1 was 5.4%.
Result for COC(=O)[C@@H]1Cc2ncn(C)c2CN1S(=O)(=O)c1ccc(OC)cc1 was 6.836%.
Result for Cc1cc(NC(=O)Cn2ncc(SCC(N)=O)c(Cl)c2=O)ccc1Br was 10.08%.
Result for CC(O)c1cccc(-n2c(CCC(=O)O)nc3ccccc32)c1 (stereo not drawn) was 5.175%.
Result for Cc1nc(C(C)C)sc1C(=O)N1CCN(C2CN3CCC2CC3)CC1 (stereo not drawn) was 0.5187%.
Result for CC(C)(C)CN(CCC#N)C(=O)c1cccc(CN2CCCC2)c1 was 8.381%.
Result for CCCN1CCN(C(=O)c2cncnc2C)[C@H]2CS(=O)(=O)C[C@H]21 was 4.233%.
Result for COCCNC(=O)Cn1cc(NC(=O)c2cccc(Cl)c2Cl)cn1 was 12%.
Result for COc1cccc(CC(C)NCC(=O)Nc2ccccc2C)c1 (stereo not drawn) was 1.631%.
Result for COc1ccc(OCC(=O)n2nc(C)c(C)c2C)cc1 was 10.1%.
Result for COc1ccc(Cc2nc3c([nH]2)CC(C)(C)CNC3=O)c(OC)c1 was 8.04%.
Result for CCc1ccsc1C(=O)N1CCCN(Cc2cscn2)CC1 was -1.463%.
Result for NS(=O)(=O)c1cccnc1Nc1c(Cl)cccc1Cl was 1.189%.
Result for COc1cc(OC)cc(C(=O)Nc2ncnc3c2CCC3)c1 was 2.685%.

2 of the entries, repeated:

* CN1CCN(Cc2ccc(-c3ccc(C(N)=O)cc3)nc2)CC1 | -2.77%
* COCc1ccccc1C(=O)N1CCn2c(nnc2C(C)C)C1 | 5.4%

Data taken from ChEMBL document CHEMBL3988442, “University of Dundee, Small-Polar-MMV Screening Library” (2021).